This passage reports binding results from PMC12187917.

Chains of the proteins cited; added tags and fusions are not shown. Lines headed by an entry give the natural chain unless they say otherwise; changes in a name come on top.
UniProt O70436: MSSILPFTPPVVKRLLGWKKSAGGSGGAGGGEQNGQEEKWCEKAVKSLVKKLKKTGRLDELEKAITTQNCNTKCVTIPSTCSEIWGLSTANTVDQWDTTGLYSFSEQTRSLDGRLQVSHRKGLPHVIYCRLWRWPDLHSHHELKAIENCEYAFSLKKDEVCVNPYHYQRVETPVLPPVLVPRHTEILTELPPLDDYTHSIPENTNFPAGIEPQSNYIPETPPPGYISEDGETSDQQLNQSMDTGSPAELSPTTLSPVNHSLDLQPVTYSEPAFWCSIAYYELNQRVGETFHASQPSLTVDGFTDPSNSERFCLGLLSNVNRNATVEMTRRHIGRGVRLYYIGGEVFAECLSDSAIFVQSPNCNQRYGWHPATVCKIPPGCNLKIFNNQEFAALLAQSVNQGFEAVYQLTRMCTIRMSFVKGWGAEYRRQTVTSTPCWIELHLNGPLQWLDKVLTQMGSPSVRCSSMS
UniProt P84025: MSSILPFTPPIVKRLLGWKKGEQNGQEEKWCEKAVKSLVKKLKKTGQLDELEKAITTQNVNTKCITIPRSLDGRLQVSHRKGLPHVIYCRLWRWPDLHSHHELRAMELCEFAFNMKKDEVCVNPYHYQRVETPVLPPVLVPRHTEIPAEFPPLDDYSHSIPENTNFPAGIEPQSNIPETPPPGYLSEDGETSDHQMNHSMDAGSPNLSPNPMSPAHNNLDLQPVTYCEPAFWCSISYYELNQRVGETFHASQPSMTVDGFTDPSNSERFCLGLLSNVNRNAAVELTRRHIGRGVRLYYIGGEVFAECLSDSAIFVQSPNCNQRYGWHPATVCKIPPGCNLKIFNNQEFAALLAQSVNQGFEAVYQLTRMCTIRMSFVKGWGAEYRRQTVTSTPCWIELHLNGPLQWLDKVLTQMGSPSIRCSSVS
UniProt Q01714: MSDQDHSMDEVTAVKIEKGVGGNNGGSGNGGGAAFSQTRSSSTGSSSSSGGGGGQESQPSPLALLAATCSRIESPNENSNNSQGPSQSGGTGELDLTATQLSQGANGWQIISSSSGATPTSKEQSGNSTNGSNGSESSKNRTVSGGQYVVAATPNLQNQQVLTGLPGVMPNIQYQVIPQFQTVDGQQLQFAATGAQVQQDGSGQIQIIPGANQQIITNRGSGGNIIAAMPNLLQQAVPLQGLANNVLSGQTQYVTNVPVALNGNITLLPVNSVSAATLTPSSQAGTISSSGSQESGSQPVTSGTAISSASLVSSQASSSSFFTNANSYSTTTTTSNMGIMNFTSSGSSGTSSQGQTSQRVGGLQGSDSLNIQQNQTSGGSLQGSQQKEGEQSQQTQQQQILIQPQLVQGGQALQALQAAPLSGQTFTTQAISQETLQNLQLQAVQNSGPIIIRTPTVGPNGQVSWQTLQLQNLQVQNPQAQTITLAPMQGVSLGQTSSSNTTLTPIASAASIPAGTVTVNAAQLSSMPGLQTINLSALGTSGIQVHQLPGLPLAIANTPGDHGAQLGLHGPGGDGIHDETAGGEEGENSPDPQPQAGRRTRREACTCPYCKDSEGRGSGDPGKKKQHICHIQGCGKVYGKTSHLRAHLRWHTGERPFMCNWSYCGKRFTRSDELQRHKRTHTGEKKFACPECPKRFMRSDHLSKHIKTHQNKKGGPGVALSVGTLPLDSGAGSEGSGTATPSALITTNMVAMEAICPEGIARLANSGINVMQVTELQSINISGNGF

In the assay the target is Smad2/3 complex (rat (endogenous in SD rat hippocampus)) (UniProt O70436+P84025). Briefly: co-IP; nuclear protein fraction of hippocampal tissue of control and AngII-treated rats; Smad2/3 antibody incubated with the samples overnight at 4 °C, washed with PBS, boiled; western blots for Sp1, c-Jun, c-Fos, IRF-7.

Results are given in words; binding and its absence hold for the method and conditions named. Binding seen in cells or lysates may run through a third protein. Some binding calls cover weakened binding; strength is not graded here.

In the case of “specificity protein 1 (Sp1) (from UniProt Q01714 1-786)”, the binding entry is on record as “binds”.
